In PubChem BioAssay AID330 (DTP/NCI, 2004):
The list shows only some results of the screen, not a fair sample: it is rich in T/C values a quarter to a half above the control, in often repeated tests (any T/C) and in doses without a T/C. Further doses and runs are listed elsewhere. T/C: endpoint of the treated group in % of that of the vehicle group. Some entries give survivors of the animals treated and no T/C: the source holds a T/C of zero for them, seemingly a mark for toxic or unscored doses. Some survivor counts are full or nearly so, which does not show that the dose was tolerated: survival well below the control is almost never listed, so the zero probably covers shortened survival too. Counts of survivors are from the toxicity check (mostly the fifth day) where no day follows; animals may have died later. Schedules are NCI's codes, taken here to give the interval after Q, in days (D) or hours (H), and the number of doses after X. Some molecules as drawn cover several salts, stereoisomers or complexes of the source; a dose is that of the sample tested. Additions like (4×) count equal records among those shown. Some doses were run more than once; the results are listed from low to high. For survival time, this PubChem deposit counts one and a half times the control or more as active, and values a quarter to a half above the control carry no call in these data; other NCI protocols may use other cut-offs. Some T/C values carry the count of animals alive at the toxicity check (mostly the fifth day); without a count, all were alive then.

System: P388 leukemia ip, CD2F1 mice, survival T/C
Test: NCI In Vivo Anticancer Drug Screen. Data for tumor model P388 Leukemia (intraperitoneal) in CD2F1 (CDF1) mice
Details: T/C endpoint: median survival time, higher T/C = longer survival
[1] = dose: 200.0 mg/kg/injection, schedule: Q01DX009 (ip), vehicle: saline with Tween-80
[2] = dose: 400.0 mg/kg/injection, schedule: Q01DX001 (ip), vehicle: Klucel (hydroxypropylcellulose) (HPC)
[3] = dose: 200.0 mg/kg/injection, schedule: Q01DX005 (ip), vehicle: saline with Tween-80
[4] = dose: 400.0 mg/kg/injection, schedule: Q01DX001 (ip), vehicle: saline

SMILES: Cc1cc(NCCCN(C)C)c2cc3ccc4cccc5ccc(c2n1)c3c45
- survivor count [1]: 0 of 6

SMILES: CCc1nc(-c2ccccc2)nc2c1nc(Cc1ccccc1)n2Nc1ccccc1
- survivor count (dose: 200.0 mg/kg/injection, schedule: Q01DX001 (ip), vehicle: Klucel (hydroxypropylcellulose) (HPC)): 4 of 6
- survivor count [2]: 0 of 6

SMILES: COC(=O)C(C)n1c(C)csc1=S (stereo not drawn)
- survivor count [3]: 3 of 6

SMILES: CCCCN(CCCC)c1cc(C(=O)CCCCCN)c2ccccc2n1
- survivor count (dose: 50.0 mg/kg/injection, schedule: Q01DX005 (ip), vehicle: saline): 1 of 6
- survivor count (dose: 100.0 mg/kg/injection, schedule: Q01DX005 (ip), vehicle: saline): 0 of 6

SMILES: N#Cc1ccc(N(O)C(=O)c2ccccc2)cc1
- survivor count (dose: 100.0 mg/kg/injection, schedule: Q01DX009 (ip), vehicle: saline with Tween-80): 2 of 6
- survivor count [1]: 0 of 6

SMILES: COc1cccc2c1C(=O)c1c(O)c3c(c(O)c1C2=O)CC(O)(C(C)NCCCO)CC3OC1CC(N)C(O)C(C)O1 (stereo not drawn)
- T/C (dose: 3.0 mg/kg/injection, schedule: Q01DX009 (ip), vehicle: water): 126 % of control
- T/C (dose: 6.0 mg/kg/injection, schedule: Q01DX009 (ip), vehicle: water): 139 and 140 % of control
- T/C (dose: 12.0 mg/kg/injection, schedule: Q01DX009 (ip), vehicle: water): 149 % of control (2×)

SMILES: CS/C(C#N)=C(\C#N)SC
- survivor count [3]: 1 of 5

SMILES: COc1cc2c(cc1OC)C(OC)N(C)c1c-2ccc2cc3c(cc12)OCO3 (stereo not drawn)
- T/C (dose: 3.13 mg/kg/injection, schedule: Q01DX009 (ip), vehicle: other): 134 % of control
- T/C (dose: 4.0 mg/kg/injection, schedule: Q01DX009 (ip), vehicle: saline): 126 % of control
- T/C (dose: 4.0 mg/kg/injection, schedule: Q01DX009 (ip), vehicle: water): 125 % of control [9 of 10 alive]
- T/C (dose: 6.25 mg/kg/injection, schedule: Q01DX009 (ip), vehicle: other): 140 % of control
- T/C (dose: 8.0 mg/kg/injection, schedule: Q01DX009 (ip), vehicle: saline): 130 % of control
- T/C (dose: 8.0 mg/kg/injection, schedule: Q01DX009 (ip), vehicle: water): 128 % of control
- T/C (dose: 8.0 mg/kg/injection, schedule: Q03HX008 (ip), vehicle: water): 136 % of control [9 of 10 alive]
- T/C (dose: 12.5 mg/kg/injection, schedule: Q01DX009 (ip), vehicle: other): 149 % of control
- T/C (dose: 16.0 mg/kg/injection, schedule: Q01DX009 (ip), vehicle: saline): 136 % of control
- T/C (dose: 16.0 mg/kg/injection, schedule: Q01DX009 (ip), vehicle: water): 134 % of control [9 of 10 alive]
- survivor count (dose: 16.0 mg/kg/injection, schedule: Q03HX008 (ip), vehicle: water): 0 of 10
- survivor count (dose: 25.0 mg/kg/injection, schedule: Q01DX009 (ip), vehicle: other): 6 of 6
- survivor count (dose: 32.0 mg/kg/injection, schedule: Q01DX009 (ip), vehicle: water): 9 of 10
- T/C (dose: 44.0 mg/kg/injection, schedule: Q04DX003 (ip), vehicle: saline with Tween-80): 140 % of control (2×)
- survivor count (dose: 50.0 mg/kg/injection, schedule: Q01DX009 (ip), vehicle: other): 2 of 6 and 3 of 6
- survivor count (dose: 64.0 mg/kg/injection, schedule: Q01DX009 (ip), vehicle: saline): 10 of 10
- survivor count (dose: 64.0 mg/kg/injection, schedule: Q01DX009 (ip), vehicle: water): 0 of 10
- survivor count (dose: 64.0 mg/kg/injection, schedule: Q01DX009 (sc), vehicle: water): 10 of 10
- survivor count (dose: 100.0 mg/kg/injection, schedule: Q01DX009 (ip), vehicle: other): 0 of 6
- survivor count (dose: 128.0 mg/kg/injection, schedule: Q01DX001 (ip), vehicle: water): 1 of 10
- survivor count (dose: 128.0 mg/kg/injection, schedule: Q08DX002 (ip), vehicle: water): 1 of 10
- survivor count (dose: 150.0 mg/kg/injection, schedule: Q01DX009 (ip), vehicle: saline with Tween-80): 6 of 6 (2×)
- T/C (dose: 150.0 mg/kg/injection, schedule: Q04DX003 (ip), vehicle: saline with Tween-80): 136 % of control (2×)
- survivor count (dose: 200.0 mg/kg/injection, schedule: Q01DX009 (ip), vehicle: other): 0 of 6
- survivor count (dose: 400.0 mg/kg/injection, schedule: Q01DX009 (ip), vehicle: other): 0 of 6

SMILES: COC(=O)c1cc(=O)n(-c2ccccc2OC)c(SC)n1
- survivor count (dose: 200.0 mg/kg/injection, schedule: Q04DX002 (ip), vehicle: Klucel (hydroxypropylcellulose) (HPC)): 4 of 6
- survivor count (dose: 400.0 mg/kg/injection, schedule: Q04DX002 (ip), vehicle: Klucel (hydroxypropylcellulose) (HPC)): 0 of 6

SMILES: Cc1cc[n+](CCC(N)=O)cc1
- survivor count (dose: 400.0 mg/kg/injection, schedule: Q04DX003 (ip), vehicle: saline): 6 of 6

SMILES: [Cl][Pt+2][Cl].[NH-]C1CCCC1.[NH-]C1CCCC1
- T/C (dose: 20.0 mg/kg/injection, schedule: Q01DX009 (ip), vehicle: Klucel (hydroxypropylcellulose) (HPC)): 143 % of control
- T/C (dose: 160.0 mg/kg/injection, schedule: Q01DX009 (ip), vehicle: Klucel (hydroxypropylcellulose) (HPC)): 144 % of control

SMILES: O=C1Cc2ccccc2C(=O)N1CCN1CCOCC1
- survivor count [4]: 2 of 6

SMILES: Cn1ncc2c(N)c(C#N)c(=O)[nH]c21
- survivor count (dose: 50.0 mg/kg/injection, schedule: Q01DX001 (ip), vehicle: saline with Tween-80): 3 of 6
- survivor count (dose: 100.0 mg/kg/injection, schedule: Q01DX001 (ip), vehicle: saline with Tween-80): 3 of 6

SMILES: Cc1ccc([C@H]2N[C@@H]2c2ccccn2)cc1
- survivor count (dose: 240.0 mg/kg/injection, schedule: Q01DX005 (ip), vehicle: saline with Tween-80): 0 of 6

SMILES: COP(=O)(N/N=C/C(=O)O)OC
- survivor count (dose: 400.0 mg/kg/injection, schedule: Q01DX009 (ip), vehicle: water): 1 of 6

SMILES: CC(C)C[N+]1(Cc2ccc(Cl)c(Cl)c2)CCOCC1
- survivor count (dose: 400.0 mg/kg/injection, schedule: Q04DX002 (ip), vehicle: saline with Tween-80): 0 of 6

SMILES: CN(C)c1ccc2c(Cl)ccnc2c1
- survivor count (dose: 100.0 mg/kg/injection, schedule: Q01DX005 (ip), vehicle: saline with Tween-80): 0 of 6
- survivor count [3]: 0 of 6

SMILES: CCCC[P+](CCCC)(CCCC)CC(=O)O
- survivor count [1]: 1 of 6

SMILES: CCNCCC1(C)Oc2ccccc2O1
- survivor count (dose: 200.0 mg/kg/injection, schedule: Q01DX001 (ip), vehicle: saline): 0 of 6
- survivor count [4]: 0 of 6

SMILES: O=c1cc2cccccc-2o1
- survivor count [2]: 2 of 6

SMILES: O=C(O)C1Cc2c([nH]c3ccccc23)C(CCCCO)N1 (stereo not drawn)
- survivor count (dose: 25.0 mg/kg/injection, schedule: Q01DX009 (ip), vehicle: Klucel (hydroxypropylcellulose) (HPC)): 0 of 6
- survivor count (dose: 50.0 mg/kg/injection, schedule: Q01DX009 (ip), vehicle: Klucel (hydroxypropylcellulose) (HPC)): 0 of 6

SMILES: C[CH2][Sn]([CH2]C)([N]=C=S)[N]=C=S
- T/C (dose: 6.25 mg/kg/injection, schedule: Q01DX009 (ip), vehicle: saline): 147 % of control
- survivor count (dose: 50.0 mg/kg/injection, schedule: Q01DX009 (ip), vehicle: suspension in saline): 0 of 6
- survivor count (dose: 100.0 mg/kg/injection, schedule: Q01DX009 (ip), vehicle: suspension in saline): 0 of 6
- survivor count (dose: 200.0 mg/kg/injection, schedule: Q01DX009 (ip), vehicle: suspension in saline): 0 of 6

SMILES: COC1=CC(=O)C(CCC(C)=O)=CC1=O
- survivor count (dose: 60.0 mg/kg/injection, schedule: Q01DX005 (ip), vehicle: Klucel (hydroxypropylcellulose) (HPC)): 0 of 6
- survivor count (dose: 120.0 mg/kg/injection, schedule: Q01DX005 (ip), vehicle: Klucel (hydroxypropylcellulose) (HPC)): 0 of 6
- survivor count (dose: 240.0 mg/kg/injection, schedule: Q01DX005 (ip), vehicle: Klucel (hydroxypropylcellulose) (HPC)): 0 of 6
